Test results as given in paper PMC9458431.
The exact form of at least one protein or probe is not confirmed. For some assays here: A weaker result is weaker than the reference pair of the same experiment. For some assays here: At least one verdict rests on a figure or table, not on a statement of the authors. For some assays here: Where cells or extracts were used, other partners may take part. For some assays here: No signal at the amounts used counts as a negative. For some assays here: Where a protein sequence is shown, tags need not be part of it. For some assays here: Whether high values mean tight binding is not given here for every scale.

Chains of the proteins cited; added tags and fusions are not shown. A line that says so, or that is headed by a name, gives the form on record, which may keep a tag or linker. Residues count along the entry.
UniProt P63073, 28-217: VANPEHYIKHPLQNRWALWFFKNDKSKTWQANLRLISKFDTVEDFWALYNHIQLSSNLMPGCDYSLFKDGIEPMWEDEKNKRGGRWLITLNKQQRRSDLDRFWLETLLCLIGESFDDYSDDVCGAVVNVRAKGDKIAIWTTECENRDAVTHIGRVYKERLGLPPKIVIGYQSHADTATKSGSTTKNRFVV
UniProt P06730, whole entry: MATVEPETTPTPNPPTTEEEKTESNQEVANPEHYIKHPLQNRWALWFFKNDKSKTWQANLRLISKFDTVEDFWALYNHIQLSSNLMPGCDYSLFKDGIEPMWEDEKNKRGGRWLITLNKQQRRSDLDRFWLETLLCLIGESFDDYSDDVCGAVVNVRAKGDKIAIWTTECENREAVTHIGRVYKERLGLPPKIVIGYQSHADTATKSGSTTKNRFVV
nuclear cap-binding complex (A549 lysate) (Homo sapiens (A549 cells)), one chain, as listed by the source, chain 1 of 2: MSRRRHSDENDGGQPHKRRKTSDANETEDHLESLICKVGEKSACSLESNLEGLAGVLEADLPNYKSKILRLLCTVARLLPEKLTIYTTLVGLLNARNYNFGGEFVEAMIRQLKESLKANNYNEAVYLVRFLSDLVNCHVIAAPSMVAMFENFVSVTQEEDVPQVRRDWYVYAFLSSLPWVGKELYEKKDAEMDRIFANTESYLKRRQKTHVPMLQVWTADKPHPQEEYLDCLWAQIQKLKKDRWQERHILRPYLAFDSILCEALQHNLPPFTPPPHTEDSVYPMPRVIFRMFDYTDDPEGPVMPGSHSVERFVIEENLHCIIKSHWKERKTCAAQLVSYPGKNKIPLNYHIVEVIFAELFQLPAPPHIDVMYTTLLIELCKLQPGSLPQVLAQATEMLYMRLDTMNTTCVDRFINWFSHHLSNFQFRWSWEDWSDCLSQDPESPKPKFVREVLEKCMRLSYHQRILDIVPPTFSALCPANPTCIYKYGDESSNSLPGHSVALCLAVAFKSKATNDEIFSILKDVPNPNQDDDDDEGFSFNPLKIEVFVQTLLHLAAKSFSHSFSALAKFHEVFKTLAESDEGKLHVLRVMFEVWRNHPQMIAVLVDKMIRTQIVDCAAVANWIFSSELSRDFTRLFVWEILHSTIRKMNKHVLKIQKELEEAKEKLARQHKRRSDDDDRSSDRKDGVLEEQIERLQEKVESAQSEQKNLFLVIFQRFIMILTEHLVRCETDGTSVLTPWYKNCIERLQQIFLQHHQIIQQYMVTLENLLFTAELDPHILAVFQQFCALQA
nuclear cap-binding complex (A549 lysate) (Homo sapiens (A549 cells)), one chain, as listed by the source, chain 2 of 2: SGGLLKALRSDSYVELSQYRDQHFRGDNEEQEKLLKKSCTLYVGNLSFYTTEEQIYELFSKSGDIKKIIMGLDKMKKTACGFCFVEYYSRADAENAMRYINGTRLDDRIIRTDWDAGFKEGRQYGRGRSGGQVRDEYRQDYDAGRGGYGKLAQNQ

What was measured:
[1] = molecular target: eIF4E (murine) (Mus musculus) (UniProt P63073); experiment: MST competition; conditions: vs m7Gp5OC3(5)FAM, slightly destabilized vs A, recombinant protein, letters put together from the description
[2] = molecular target: T1, IFIT1 (human, A549 lysate) (UniProt P09914); experiment: pull-down, western blot; conditions: A549 lysate, pull-down: 20 mM Tris-HCl pH 7.4, 150 mM NaCl, 2 mM MgCl2, 2 mM DTT, 0.2% IGEPAL, 4 C, label: biotin (pAp-biotin conjugate), letters put together from the description
T1 sequence (looked up, limits assumed): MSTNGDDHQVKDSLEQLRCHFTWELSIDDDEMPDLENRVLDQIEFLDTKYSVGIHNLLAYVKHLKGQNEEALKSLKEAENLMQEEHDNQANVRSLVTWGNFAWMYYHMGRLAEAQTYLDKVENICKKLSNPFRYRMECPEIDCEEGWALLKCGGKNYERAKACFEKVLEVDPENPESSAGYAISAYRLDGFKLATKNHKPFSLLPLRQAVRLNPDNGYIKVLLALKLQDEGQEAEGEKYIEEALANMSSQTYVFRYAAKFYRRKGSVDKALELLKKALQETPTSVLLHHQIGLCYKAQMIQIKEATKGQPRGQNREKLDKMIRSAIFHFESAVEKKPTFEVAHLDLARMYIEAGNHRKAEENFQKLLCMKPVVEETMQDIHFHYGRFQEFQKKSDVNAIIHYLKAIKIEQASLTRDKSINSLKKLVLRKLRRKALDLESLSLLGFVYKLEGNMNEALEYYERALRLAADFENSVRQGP

[3] = molecular target: T2, Ifit1b (mouse, JAWS II lysate) (Mus musculus (JAWS II cells)) (UniProt Q64282); experiment: pull-down, western blot; conditions: JAWS II lysate, pull-down: 20 mM Tris-HCl pH 7.4, 150 mM NaCl, 2 mM MgCl2, 2 mM DTT, 0.2% IGEPAL, 4 C, protein in an extract, label: biotin (pAp-biotin conjugate), letters put together from the description
T2 sequence (looked up, limits assumed): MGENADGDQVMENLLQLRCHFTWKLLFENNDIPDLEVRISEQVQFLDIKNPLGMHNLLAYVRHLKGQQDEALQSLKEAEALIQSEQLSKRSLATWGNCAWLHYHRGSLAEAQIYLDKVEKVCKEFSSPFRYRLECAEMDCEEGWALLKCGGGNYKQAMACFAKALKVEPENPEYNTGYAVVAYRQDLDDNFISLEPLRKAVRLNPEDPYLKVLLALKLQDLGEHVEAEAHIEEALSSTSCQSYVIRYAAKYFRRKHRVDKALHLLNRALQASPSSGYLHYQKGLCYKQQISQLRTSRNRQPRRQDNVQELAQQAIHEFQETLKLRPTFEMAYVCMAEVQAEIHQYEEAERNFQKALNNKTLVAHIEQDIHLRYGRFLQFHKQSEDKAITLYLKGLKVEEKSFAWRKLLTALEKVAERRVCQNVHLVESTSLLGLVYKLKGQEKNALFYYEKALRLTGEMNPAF

[4] = molecular target: T2, Ifit1b (mouse, JAWS II lysate) (Mus musculus (JAWS II cells)); experiment: pull-down AP-MS; conditions: pull-down: 20 mM Tris-HCl pH 7.4, 150 mM NaCl, 2 mM MgCl2, 2 mM DTT, 0.2% IGEPAL, 4 C, protein in an extract, label: biotin (pAp-biotin conjugate), letters put together from the description
[5] = molecular target: eIF4E (human, A549 lysate) (Homo sapiens (A549 cells)) (UniProt P06730); experiment: pull-down, western blot; conditions: A549 lysate, pull-down: 20 mM Tris-HCl pH 7.4, 150 mM NaCl, 2 mM MgCl2, 2 mM DTT, 0.2% IGEPAL, 4 C, protein in an extract, label: biotin (pAp-biotin conjugate), letters put together from the description
[6] = test system: nuclear cap-binding complex (A549 lysate) (Homo sapiens (A549 cells)); experiment: pull-down, western blot; conditions: A549 lysate, pull-down: 20 mM Tris-HCl pH 7.4, 150 mM NaCl, 2 mM MgCl2, 2 mM DTT, 0.2% IGEPAL, 4 C, protein in an extract, label: biotin (pAp-biotin conjugate), letters put together from the description

“AGGGGAAGCGGGCAUGCGGCCAGCCA [cap1(m6A) RNA]”: binds more weakly ([1]; m7Gppp-m6Am).

“AGGGGAAGCGGGCAUGCGGCCAGCCA [cap0(m6A) RNA-biotin]”: binds ([2]; m7Gppp-m6A, protein in an extract); binds ([3]; m7Gppp-m6A).

“AGGGGAAGCGGGCAUGCGGCCAGCCA [cap0(A) RNA-biotin]” was tested, and the binding signal (log2 ratio vs mock) ([4]; m7Gppp-A) was 2.71, the binding result ([5]; m7Gppp-A) was “binds” and the binding result ([6]; m7Gppp-A) was “binds”. “AGGGGAAGCGGGCAUGCGGCCAGCCA [cap0(A) RNA-biotin]”: binds ([2]; m7Gppp-A, protein in an extract); binds ([3]; m7Gppp-A).

“AGGGGAAGCGGGCAUGCGGCCAGCCA [cap2-1(A) RNA-biotin]” was tested, and the binding signal (log2 ratio vs mock) ([4]; m7Gppp-ApGm) was 2.89, the binding result ([5]; m7Gppp-ApGm) was “binds” and the binding result ([6]; m7Gppp-ApGm) was “binds”. “AGGGGAAGCGGGCAUGCGGCCAGCCA [cap2-1(A) RNA-biotin]”: binds more weakly ([2]; m7Gppp-ApGm, protein in an extract); binds ([3]; m7Gppp-ApGm).

“AGGGGAAGCGGGCAUGCGGCCAGCCA [cap2-1(m6A) RNA-biotin]”: binds more weakly ([2]; similar to cap1(m6A), m7Gppp-m6ApGm, protein in an extract); binds ([3]; m7Gppp-m6ApGm).

For “AGGGGAAGCGGGCAUGCGGCCAGCCA [cap2(A) RNA-biotin]”, the binding signal (log2 ratio vs mock) ([4]; m7Gppp-AmpGm) was 0.799, the binding result ([5]; m7Gppp-AmpGm) was “binds” and the binding result ([6]; m7Gppp-AmpGm) was “binds”. “AGGGGAAGCGGGCAUGCGGCCAGCCA [cap2(A) RNA-biotin]”: no binding ([2]; m7Gppp-AmpGm, protein in an extract).

“AGGGGAAGCGGGCAUGCGGCCAGCCA [cap2(m6A) RNA]”: binds more weakly ([1]; m7Gppp-m6AmpGm).

“AGGGGAAGCGGGCAUGCGGCCAGCCA [cap2(m6A) RNA-biotin]”: binds more weakly ([2]; synergistic reduction, m7Gppp-m6AmpGm, protein in an …).

“AGGGGAAGCGGGCAUGCGGCCAGCCA [cap0(m6A) RNA]”: binds more weakly ([1]; m7Gppp-m6A).

“AGGGGAAGCGGGCAUGCGGCCAGCCA [cap1(m6A) RNA-biotin]”: binds more weakly ([2]; almost unrecognizable, m7Gppp-m6Am, protein in an extract); no binding ([3]; m7Gppp-m6Am).

With “AGGGGAAGCGGGCAUGCGGCCAGCCA [cap1(A) RNA-biotin]” the binding signal (log2 ratio vs mock) ([4]; m7Gppp-Am, counted as no binding) was -0.644, the binding result ([5]; m7Gppp-Am) was “binds” and the binding result ([6]; m7Gppp-Am) was “binds”. “AGGGGAAGCGGGCAUGCGGCCAGCCA [cap1(A) RNA-biotin]”: binds more weakly ([2]; m7Gppp-Am, protein in an extract); no binding ([3]; m7Gppp-Am).
